± gives the standard deviation of the averaged measurements. Only a part is listed here, and it is no random draw. Single values are uncertain here, since repeats match poorly.
Test system: FaDu
Assay: mitochondrial oxygen consumption rate normalised to cell number, Z score over the library; higher = higher oxygen consumption (negative = OCR reduction)
Settings: treatment time 24 h, assay medium: 5 mM galactose, 5 mM pyruvate, 4 mM glutamine
Description: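 Primary screen: FaDu cells were incubated 24 h with Pharmakon 1600 / TDI oncology set compounds at 2 or 10 uM. Mitochondrial-specific OCR (basal minus 2 uM antimycin A) was measured on a Seahorse XF96 in assay medium with 5 mM galactose, 5 mM pyruvate and 4 mM glutamine, then corrected for Hoechst cell number and expressed as a Z score […]. Compounds that cut cell number by >66% were excluded. Two repeats.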

SMILES	mitochondrial oxygen consumption rate normalised (2 µM)	mitochondrial oxygen consumption rate normalised (10 µM)
Cc1cc(NS(=O)(=O)c2ccc(N)cc2)no1	-0.664 ± 0.2	–
CN[C@@H]1[C@@H](O)[C@@H](O[C@@H]2[C@@H](O)[C@H](O[C@H]3OC(CN)=CC[C@H]3N)[C@@H](N)C[C@H]2N)OC[C@]1(C)O	-0.364 ± 0.27	–
CC1(C)S[C@@H]2[C@H](NC(=O)[C@H](C(=O)O)c3ccsc3)C(=O)N2[C@H]1C(=O)O	-0.349 ± 0.39	–
CC1(O)CCC(C(C)(C)O)CC1 (stereo unspecified)	0.805 ± 0.097	–
CCOC(=O)n1ccn(C)c1=S	0.395 ± 1.4	–
O=C1CN(/N=C/c2ccc(-c3ccc([N+](=O)[O-])cc3)o2)C(=O)N1	-0.53 ± 0.31	–
CC1(C)S[C@@H]2[C@H](NC(=O)C(C(=O)O)c3ccccc3)C(=O)N2[C@H]1C(=O)O (stereo partly specified)	0.646 ± 0.22	–
CCN(CC)CCOC(=O)C(Cc1cccc2ccccc12)CC1CCCO1 (stereo unspecified)	0.0429 ± 0.27	–
C[C@H](N)[C@H](O)c1cccc(O)c1	0.85 ± 0.24	–
O=C1CN(/N=C/c2ccc([N+](=O)[O-])o2)C(=O)N1	-0.0226 ± 0.16	–
Cc1ccccc1OCC(O)CO (stereo unspecified)	0.785 ± 0.15	–
CC(C)(C)C(=O)C(Oc1ccc(Cl)cc1)n1ccnc1 (stereo unspecified)	0.244 ± 0.014	–
C[C@H](Cn1cnc2c(N)ncnc21)OCP(=O)(O)O	-0.543 ± 0.55	0.449 ± 0.26
CCCCNc1cc(C(=O)O)cc(S(N)(=O)=O)c1Oc1ccccc1	0.958 ± 1.7	–
CC(C)n1c(/C=C/C(O)CC(O)CC(=O)O)c(-c2ccc(F)cc2)c2ccccc21 (stereo unspecified)	0.166 ± 0.55	–
Cc1ccnc(NS(=O)(=O)c2ccc(N)cc2)n1	-0.603 ± 0.36	–
[O-][n+]1cccc(CO)c1	0.51 ± 0.21	–
COc1ccc(C[C@H](N)C(=O)N[C@H]2[C@@H](O)[C@H](n3cnc4c(N(C)C)ncnc43)O[C@@H]2CO)cc1	-1.19 ± 0.79	–
CCCCC/C=C/CCC(=O)N[C@H]1[C@H](Oc2c3cc4cc2Oc2ccc(cc2Cl)[C@@H](O[C@@H]2O[C@H](CO)[C@@H](O)[C@H](O)[C@H]2NC(C)=O)[C@@H]2NC(=O)[C@H](NC(=O)[C@@H]4NC(=O)[C@H]4NC(=O)C(Cc5ccc(c(Cl)c5)O3)NC(=O)[C@H](N)c3ccc(O)c(c3)Oc3cc(O)cc4c3)c3ccc(O)c(c3)-c3c(OC4O[C@H](CO)[C@@H](O)[C@H](O)[C@@H]4O)cc(O)cc3[C@@H](C(=O)O)NC2=O)O[C@H](CO)[C@@H](O)[C@@H]1O (stereo partly specified) [TEICOPLANIN [A(2-1) shown]]	0.128 ± 0.35	1.41 ± 0.64
CNC[C@H](O)[C@@H](O)[C@H](O)[C@H](O)CO	0.169 ± 0.6	–
Nc1ccc(S(=O)(=O)Nc2cnc3ccccc3n2)cc1	0.447 ± 0.89	–
NCCCC(O)(P(=O)(O)O)P(=O)(O)O	0.331 ± 0.84	–
CC(C)CCCC(C)N (stereo unspecified)	0.1746 ± 0.0017	–
COc1cc(C2Oc3cc([C@H]4Oc5cc(O)cc(O)c5C(=O)[C@@H]4O)ccc3OC2CO)ccc1O (stereo partly specified)	0.728 ± 0.82	–

Some of the entries above in another layout.
SMILES,mitochondrial oxygen consumption rate normalised (2 µM),mitochondrial oxygen consumption rate normalised (10 µM)
CN[C@@H]1[C@@H](O)[C@@H](O[C@@H]2[C@@H](O)[C@H](O[C@H]3OC(CN)=CC[C@H]3N)[C@@H](N)C[C@H]2N)OC[C@]1(C)O,-0.364 ± 0.27,–
CC1(C)S[C@@H]2[C@H](NC(=O)C(C(=O)O)c3ccccc3)C(=O)N2[C@H]1C(=O)O (stereo partly specified),0.646 ± 0.22,–
Cc1ccnc(NS(=O)(=O)c2ccc(N)cc2)n1,-0.603 ± 0.36,–
[O-][n+]1cccc(CO)c1,0.51 ± 0.21,–
COc1ccc(C[C@H](N)C(=O)N[C@H]2[C@@H](O)[C@H](n3cnc4c(N(C)C)ncnc43)O[C@@H]2CO)cc1,-1.19 ± 0.79,–
CNC[C@H](O)[C@@H](O)[C@H](O)[C@H](O)CO,0.169 ± 0.6,–
